Results taken from PubChem BioAssay AID1347423 (Functional Genomics Laboratory (NCATS/FGL), 2020).
The whole screen tested about 52,000 sequences, of which about 210 (0.4%) were called active.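 How the source made its calls: active means gene whose silencing raises cell survival under the drug, median off-target-corrected z-score across its silencing RNAs 2 or more; inactive means the rest.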 This is one part of the list.

Assay: Resistance to Poly (ADP-Ribose) Polymerase inhibitor: Gene Identification via Genome-wide siRNA Screen
Conditions: mouse BRCA2 R2336H ES cells, olaparib, CellTiter-Glo viability; active compounds read high
Procedure, shortened: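 Genome-wide siRNA screen (3 siRNAs/gene, 20 nM) in mouse ES cells carrying hypomorphic BRCA2 R2336H; olaparib 500 nM added 48 h post-transfection, CellTiter-Glo viability 72 h later. Normalized to plate-median negative control; MAD z-scores, gene median, seed-adjusted.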

Sequence | z-score
GGAAAAUCACAAUCACUUGTT against D11Ertd707e | inactive: -0.448
GGAUGACCGUGCUAGAAAUTT against Klra2 | inactive: 1.01
GGCUACGUCGAUGUCUCAATT against BC025575 | inactive: -1.74
GGACUCCCUUCUAGGUGAATT against Mcm7 | inactive: -1.8
GGUCUAUCUACGCUGUGUUTT against Cd36 | inactive: -0.81
GCUUGUCUAGAAACACCAUTT against Lrfn3 | inactive: -0.0841
GUUCUUCUCAUCUUCCGCUTT against Olfr1506 | inactive: -2.81
GACCCAGAAAAAGGAGGGCTT against Hist1h2ba | inactive: 0.579
GGAAGAAGCCACCAUGUACTT against Pbx4 | inactive: 0.01
CCACCUGUACACCUAGACUTT against Pex12 | inactive: -1.36
GCUAAUCGGUAUUGAUGAUTT against Dab2 | inactive: -0.153
GCAAGCUAAAGGUACAGAATT against Ncoa6 | inactive: -1.02
GGAGGAGGAAGAAAUACCGTT against Gspt1 | inactive: -0.517
GGAUAACCUUGAAUUUCUGTT against Il5 | inactive: 0.497
GGGCAACUAUUGAUGAGGUTT against Centb5 | inactive: -0.554
CCCACCUUCCAAAAGGAUCTT against 5031434C07Rik | inactive: -0.345
GGAUUUGGAAAAUUGAUGCTT against Ahi1 | inactive: 0.401
CCUCCUCUAGGGUAGGUAGTT against A330068P14Rik | inactive: -0.983
GGAGAUGCUGUACAAGCAGTT against Zfp212 | inactive: 3.07
GGCAACCAUCAAUCUAUUUTT against 5930422O12Rik | inactive: -1.96
GGAGCAAAUGAUCAAUAAATT against A030003A19Rik | inactive: 0.193
GCGCAGCACAGGUUUUGAATT against Tieg1 | inactive: 0.0624

Sequence | z-score
GCUAGUAUUCUAAGAUCUUTT against Fin15 | inactive: 0.412
GGACAGAUUCCGCAUUGAGTT against Mospd3 | inactive: -2.92
CGCAGUACCUAUUUGAGCGTT against Hs6st1 | inactive: 0.199
CCUAUGUCUAACAGAUUUGTT against D330050I23Rik | inactive: -0.206
GGACCUGACCAGAAGAGCUTT against Pte2a | inactive: 0.152
GGUGUUUUAUACACUCUGUTT against 8430406I07Rik | inactive: -0.798
GCAAUGGGUGACAAUAGCATT against Vamp3 | inactive: -0.955
GGCUCUAUGGAAGUUCUUATT against Kcnh8 | inactive: 0.642
GGGUUUUUUUUUUCCUUCCTT against Hsd17b1 | active: 1.88
GGGAUCACAGAUCUCUCUGTT against Magi1 | inactive: -0.509
GCAAUUUAAGUUUAGGAGATT against B130016L12Rik | inactive: -0.491
CCAAACGAAGGAAGCUGACTT against Taf6l | inactive: -1.5
GGACAUCCUGGCUUUCUACTT against Insm1 | inactive: -0.469
GGAGGUUUUUAAAUGUGUUTT against Sbk | inactive: 0.232
GGUUCUUAAAUCAGCAUUGTT against Dnm3 | inactive: -0.953
CCCUUUGUUAUACUCUAAATT against G430041M01Rik | inactive: -0.427
CGGUCAGAUGUACGAAACCTT against Crygs | inactive: -0.887
GGUACUACUGUGGCUAAGCTT against 1700120K04Rik | inactive: 0.647
GGAUGUCUCCAUGAAGGAATT against Ccnb2 | inactive: -0.86
GCCUAUGACAUCUCCGUACTT against Alx3 | inactive: -0.855
GAAGGACACCCUUAUAUUUTT against Olfr1216 | inactive: -0.326
GCUUGUGGACUACCAUAAGTT against Ptk6 | inactive: 0.786

Sequence | z-score
GCUUAAAAGUGAAGUCUUGTT against C730025P13Rik | inactive: -1.37
CCUGGAACGAAUAUUUGUGTT against C230094A16Rik | inactive: -0.291
GAUUACAGACAGUGGAAAATT against Ndufb3 | inactive: 0.951
GGGCAGAUCUAAAACCUUCTT against Olfr935 | inactive: -0.265
GGACUGAAGGGAGAUUUUUTT against Fstl3 | inactive: 2.37
GGGAAUUCUACACUCAUAUTT against Txndc3 | inactive: 0.361
GGAAAUGGACUGUUUAGGCTT against Fgf15 | inactive: 0.493
UUAUAGGCCUAUUGGUACATT against Olfr1208 | inactive: -2.43
GGCCAGAAAACAUGCUUUATT against Pbx1 | inactive: 3.32
CGGGACAUUCGUGAUCUUATT against 4930511J11Rik | inactive: -2.48
GGAGAAGAAAGAAAAGCUUTT against Nusap1 | inactive: -0.243
GGCAAAAAAAGGCUUUAUUTT against Nde1 | inactive: 1.13
GGAAGUGGCUAUGACAGAGTT against Atp1a3 | inactive: -0.078
GGAUGAUUAUUGGAGCUAUTT against Vtn | inactive: 0.647
GGAGCCUUGGAAGUGAUCUTT against AI661017 | inactive: -2.27
GGGCCAUUUCAGCUUUUCUTT against Mei1 | inactive: -0.0174
GGUAGGGUGGACACAACUCTT against Gpsm3 | inactive: 1.08
CCCGGAGAGUCAUUUGUGUTT against Cpsf4 | inactive: -1.05
GGUAGUGGAAUGUGGGAGUTT against 2610044O15Rik | inactive: -1.55
GGACGUGCUCAAGUUCAUCTT against Ift172 | inactive: -1.45
CCUUAGCAGAAUUGAGUCGTT against 1110001A12Rik | inactive: -0.00428
CCCAAUAGGCAACUCCGAATT against 1700025K23Rik | inactive: 0.384

Copied from the listing for reference:
Sequence | z-score
UUAUAGGCCUAUUGGUACATT against Olfr1208 | inactive: -2.43
GGCCAGAAAACAUGCUUUATT against Pbx1 | inactive: 3.32
